This is one part of the list.
The targets below were run with COC(=O)[C@H](CCSC)NC(=O)C1=C(C=C(C=C1)NC[C@H](CS)N)C2=CC=CC=C2 (assay: log2 fold change, soluble protein after heating vs DMSO (PISA); higher = thermal stabilisation; K562 cells, 10 uM, 30 min; active = over 0.2 and 3.5 SD of the protein, either way, in both replicates (recomputed)).
In short: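 Soluble protein was quantified by TMTpro 16plex LC-MS/MS after channel sums were equalised. It was obtained as the supernatant after 21,000xg for 90 min from pooled aliquots of K562 cells (2×10^6 cells/mL, 10 μM compound, 30 min) heated for 3 min across 48°C-58°C and extracted in PBS with 0.5% NP-40 at 4°C. Thermal stability values are relative to control samples and come from duplicates. They are given as log2 fold changes.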

Sequences of proteins named here, by UniProt entry; tags and fusion partners are left off. A change or cut given only in a name is not applied to a line headed by its entry.
UniProt P12318: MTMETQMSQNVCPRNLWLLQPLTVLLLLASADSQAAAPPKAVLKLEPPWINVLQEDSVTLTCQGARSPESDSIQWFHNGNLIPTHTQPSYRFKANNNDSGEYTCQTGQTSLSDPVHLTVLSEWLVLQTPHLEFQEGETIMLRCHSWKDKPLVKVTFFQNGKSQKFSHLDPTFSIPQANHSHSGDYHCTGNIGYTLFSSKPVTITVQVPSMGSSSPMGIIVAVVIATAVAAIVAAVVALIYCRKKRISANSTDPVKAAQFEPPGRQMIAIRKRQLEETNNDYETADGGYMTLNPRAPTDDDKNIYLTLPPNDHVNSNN
UniProt P10109: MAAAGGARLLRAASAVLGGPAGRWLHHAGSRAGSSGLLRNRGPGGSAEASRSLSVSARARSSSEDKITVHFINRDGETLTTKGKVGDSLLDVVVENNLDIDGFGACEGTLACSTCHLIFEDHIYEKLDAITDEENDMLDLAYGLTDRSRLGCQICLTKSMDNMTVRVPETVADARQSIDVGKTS
UniProt Q8N3X1: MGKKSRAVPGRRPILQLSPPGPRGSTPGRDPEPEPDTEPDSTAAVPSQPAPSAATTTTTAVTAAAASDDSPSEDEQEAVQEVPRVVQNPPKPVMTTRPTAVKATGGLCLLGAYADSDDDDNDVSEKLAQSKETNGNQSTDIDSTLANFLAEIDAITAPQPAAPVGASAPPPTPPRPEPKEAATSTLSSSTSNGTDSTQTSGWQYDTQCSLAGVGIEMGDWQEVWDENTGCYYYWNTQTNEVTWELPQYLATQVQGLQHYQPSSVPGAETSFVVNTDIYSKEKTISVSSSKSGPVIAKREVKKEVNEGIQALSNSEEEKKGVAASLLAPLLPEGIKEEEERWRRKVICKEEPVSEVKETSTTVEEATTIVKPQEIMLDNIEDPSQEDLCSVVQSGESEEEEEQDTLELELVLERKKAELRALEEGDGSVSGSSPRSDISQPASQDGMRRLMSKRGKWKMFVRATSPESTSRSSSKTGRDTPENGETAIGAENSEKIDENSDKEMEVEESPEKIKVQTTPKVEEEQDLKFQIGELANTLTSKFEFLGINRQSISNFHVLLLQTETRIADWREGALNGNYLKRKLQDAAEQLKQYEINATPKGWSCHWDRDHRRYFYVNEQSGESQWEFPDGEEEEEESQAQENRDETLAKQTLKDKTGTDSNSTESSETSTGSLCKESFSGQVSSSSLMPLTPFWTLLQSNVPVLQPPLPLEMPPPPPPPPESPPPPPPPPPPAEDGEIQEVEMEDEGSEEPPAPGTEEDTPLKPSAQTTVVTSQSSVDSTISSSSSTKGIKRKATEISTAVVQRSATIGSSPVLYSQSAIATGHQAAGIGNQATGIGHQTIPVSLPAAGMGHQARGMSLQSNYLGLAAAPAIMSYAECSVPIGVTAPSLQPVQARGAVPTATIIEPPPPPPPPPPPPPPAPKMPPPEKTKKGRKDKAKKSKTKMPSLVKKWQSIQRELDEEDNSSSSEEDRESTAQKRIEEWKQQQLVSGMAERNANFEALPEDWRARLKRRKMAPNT
UniProt Q8WVX9: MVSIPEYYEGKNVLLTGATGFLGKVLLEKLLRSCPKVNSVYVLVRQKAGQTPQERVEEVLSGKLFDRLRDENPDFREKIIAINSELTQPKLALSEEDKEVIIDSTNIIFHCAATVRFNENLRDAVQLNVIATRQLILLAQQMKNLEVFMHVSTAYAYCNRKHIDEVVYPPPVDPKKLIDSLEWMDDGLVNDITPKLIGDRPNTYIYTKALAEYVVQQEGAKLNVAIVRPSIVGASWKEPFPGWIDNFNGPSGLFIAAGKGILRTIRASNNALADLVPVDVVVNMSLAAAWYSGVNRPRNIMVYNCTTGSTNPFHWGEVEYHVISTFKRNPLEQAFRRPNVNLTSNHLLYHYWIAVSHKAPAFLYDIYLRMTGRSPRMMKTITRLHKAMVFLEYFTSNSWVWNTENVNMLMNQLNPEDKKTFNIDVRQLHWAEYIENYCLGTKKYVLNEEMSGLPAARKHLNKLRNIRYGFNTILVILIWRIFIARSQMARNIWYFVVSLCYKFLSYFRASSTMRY
UniProt Q8TDW7: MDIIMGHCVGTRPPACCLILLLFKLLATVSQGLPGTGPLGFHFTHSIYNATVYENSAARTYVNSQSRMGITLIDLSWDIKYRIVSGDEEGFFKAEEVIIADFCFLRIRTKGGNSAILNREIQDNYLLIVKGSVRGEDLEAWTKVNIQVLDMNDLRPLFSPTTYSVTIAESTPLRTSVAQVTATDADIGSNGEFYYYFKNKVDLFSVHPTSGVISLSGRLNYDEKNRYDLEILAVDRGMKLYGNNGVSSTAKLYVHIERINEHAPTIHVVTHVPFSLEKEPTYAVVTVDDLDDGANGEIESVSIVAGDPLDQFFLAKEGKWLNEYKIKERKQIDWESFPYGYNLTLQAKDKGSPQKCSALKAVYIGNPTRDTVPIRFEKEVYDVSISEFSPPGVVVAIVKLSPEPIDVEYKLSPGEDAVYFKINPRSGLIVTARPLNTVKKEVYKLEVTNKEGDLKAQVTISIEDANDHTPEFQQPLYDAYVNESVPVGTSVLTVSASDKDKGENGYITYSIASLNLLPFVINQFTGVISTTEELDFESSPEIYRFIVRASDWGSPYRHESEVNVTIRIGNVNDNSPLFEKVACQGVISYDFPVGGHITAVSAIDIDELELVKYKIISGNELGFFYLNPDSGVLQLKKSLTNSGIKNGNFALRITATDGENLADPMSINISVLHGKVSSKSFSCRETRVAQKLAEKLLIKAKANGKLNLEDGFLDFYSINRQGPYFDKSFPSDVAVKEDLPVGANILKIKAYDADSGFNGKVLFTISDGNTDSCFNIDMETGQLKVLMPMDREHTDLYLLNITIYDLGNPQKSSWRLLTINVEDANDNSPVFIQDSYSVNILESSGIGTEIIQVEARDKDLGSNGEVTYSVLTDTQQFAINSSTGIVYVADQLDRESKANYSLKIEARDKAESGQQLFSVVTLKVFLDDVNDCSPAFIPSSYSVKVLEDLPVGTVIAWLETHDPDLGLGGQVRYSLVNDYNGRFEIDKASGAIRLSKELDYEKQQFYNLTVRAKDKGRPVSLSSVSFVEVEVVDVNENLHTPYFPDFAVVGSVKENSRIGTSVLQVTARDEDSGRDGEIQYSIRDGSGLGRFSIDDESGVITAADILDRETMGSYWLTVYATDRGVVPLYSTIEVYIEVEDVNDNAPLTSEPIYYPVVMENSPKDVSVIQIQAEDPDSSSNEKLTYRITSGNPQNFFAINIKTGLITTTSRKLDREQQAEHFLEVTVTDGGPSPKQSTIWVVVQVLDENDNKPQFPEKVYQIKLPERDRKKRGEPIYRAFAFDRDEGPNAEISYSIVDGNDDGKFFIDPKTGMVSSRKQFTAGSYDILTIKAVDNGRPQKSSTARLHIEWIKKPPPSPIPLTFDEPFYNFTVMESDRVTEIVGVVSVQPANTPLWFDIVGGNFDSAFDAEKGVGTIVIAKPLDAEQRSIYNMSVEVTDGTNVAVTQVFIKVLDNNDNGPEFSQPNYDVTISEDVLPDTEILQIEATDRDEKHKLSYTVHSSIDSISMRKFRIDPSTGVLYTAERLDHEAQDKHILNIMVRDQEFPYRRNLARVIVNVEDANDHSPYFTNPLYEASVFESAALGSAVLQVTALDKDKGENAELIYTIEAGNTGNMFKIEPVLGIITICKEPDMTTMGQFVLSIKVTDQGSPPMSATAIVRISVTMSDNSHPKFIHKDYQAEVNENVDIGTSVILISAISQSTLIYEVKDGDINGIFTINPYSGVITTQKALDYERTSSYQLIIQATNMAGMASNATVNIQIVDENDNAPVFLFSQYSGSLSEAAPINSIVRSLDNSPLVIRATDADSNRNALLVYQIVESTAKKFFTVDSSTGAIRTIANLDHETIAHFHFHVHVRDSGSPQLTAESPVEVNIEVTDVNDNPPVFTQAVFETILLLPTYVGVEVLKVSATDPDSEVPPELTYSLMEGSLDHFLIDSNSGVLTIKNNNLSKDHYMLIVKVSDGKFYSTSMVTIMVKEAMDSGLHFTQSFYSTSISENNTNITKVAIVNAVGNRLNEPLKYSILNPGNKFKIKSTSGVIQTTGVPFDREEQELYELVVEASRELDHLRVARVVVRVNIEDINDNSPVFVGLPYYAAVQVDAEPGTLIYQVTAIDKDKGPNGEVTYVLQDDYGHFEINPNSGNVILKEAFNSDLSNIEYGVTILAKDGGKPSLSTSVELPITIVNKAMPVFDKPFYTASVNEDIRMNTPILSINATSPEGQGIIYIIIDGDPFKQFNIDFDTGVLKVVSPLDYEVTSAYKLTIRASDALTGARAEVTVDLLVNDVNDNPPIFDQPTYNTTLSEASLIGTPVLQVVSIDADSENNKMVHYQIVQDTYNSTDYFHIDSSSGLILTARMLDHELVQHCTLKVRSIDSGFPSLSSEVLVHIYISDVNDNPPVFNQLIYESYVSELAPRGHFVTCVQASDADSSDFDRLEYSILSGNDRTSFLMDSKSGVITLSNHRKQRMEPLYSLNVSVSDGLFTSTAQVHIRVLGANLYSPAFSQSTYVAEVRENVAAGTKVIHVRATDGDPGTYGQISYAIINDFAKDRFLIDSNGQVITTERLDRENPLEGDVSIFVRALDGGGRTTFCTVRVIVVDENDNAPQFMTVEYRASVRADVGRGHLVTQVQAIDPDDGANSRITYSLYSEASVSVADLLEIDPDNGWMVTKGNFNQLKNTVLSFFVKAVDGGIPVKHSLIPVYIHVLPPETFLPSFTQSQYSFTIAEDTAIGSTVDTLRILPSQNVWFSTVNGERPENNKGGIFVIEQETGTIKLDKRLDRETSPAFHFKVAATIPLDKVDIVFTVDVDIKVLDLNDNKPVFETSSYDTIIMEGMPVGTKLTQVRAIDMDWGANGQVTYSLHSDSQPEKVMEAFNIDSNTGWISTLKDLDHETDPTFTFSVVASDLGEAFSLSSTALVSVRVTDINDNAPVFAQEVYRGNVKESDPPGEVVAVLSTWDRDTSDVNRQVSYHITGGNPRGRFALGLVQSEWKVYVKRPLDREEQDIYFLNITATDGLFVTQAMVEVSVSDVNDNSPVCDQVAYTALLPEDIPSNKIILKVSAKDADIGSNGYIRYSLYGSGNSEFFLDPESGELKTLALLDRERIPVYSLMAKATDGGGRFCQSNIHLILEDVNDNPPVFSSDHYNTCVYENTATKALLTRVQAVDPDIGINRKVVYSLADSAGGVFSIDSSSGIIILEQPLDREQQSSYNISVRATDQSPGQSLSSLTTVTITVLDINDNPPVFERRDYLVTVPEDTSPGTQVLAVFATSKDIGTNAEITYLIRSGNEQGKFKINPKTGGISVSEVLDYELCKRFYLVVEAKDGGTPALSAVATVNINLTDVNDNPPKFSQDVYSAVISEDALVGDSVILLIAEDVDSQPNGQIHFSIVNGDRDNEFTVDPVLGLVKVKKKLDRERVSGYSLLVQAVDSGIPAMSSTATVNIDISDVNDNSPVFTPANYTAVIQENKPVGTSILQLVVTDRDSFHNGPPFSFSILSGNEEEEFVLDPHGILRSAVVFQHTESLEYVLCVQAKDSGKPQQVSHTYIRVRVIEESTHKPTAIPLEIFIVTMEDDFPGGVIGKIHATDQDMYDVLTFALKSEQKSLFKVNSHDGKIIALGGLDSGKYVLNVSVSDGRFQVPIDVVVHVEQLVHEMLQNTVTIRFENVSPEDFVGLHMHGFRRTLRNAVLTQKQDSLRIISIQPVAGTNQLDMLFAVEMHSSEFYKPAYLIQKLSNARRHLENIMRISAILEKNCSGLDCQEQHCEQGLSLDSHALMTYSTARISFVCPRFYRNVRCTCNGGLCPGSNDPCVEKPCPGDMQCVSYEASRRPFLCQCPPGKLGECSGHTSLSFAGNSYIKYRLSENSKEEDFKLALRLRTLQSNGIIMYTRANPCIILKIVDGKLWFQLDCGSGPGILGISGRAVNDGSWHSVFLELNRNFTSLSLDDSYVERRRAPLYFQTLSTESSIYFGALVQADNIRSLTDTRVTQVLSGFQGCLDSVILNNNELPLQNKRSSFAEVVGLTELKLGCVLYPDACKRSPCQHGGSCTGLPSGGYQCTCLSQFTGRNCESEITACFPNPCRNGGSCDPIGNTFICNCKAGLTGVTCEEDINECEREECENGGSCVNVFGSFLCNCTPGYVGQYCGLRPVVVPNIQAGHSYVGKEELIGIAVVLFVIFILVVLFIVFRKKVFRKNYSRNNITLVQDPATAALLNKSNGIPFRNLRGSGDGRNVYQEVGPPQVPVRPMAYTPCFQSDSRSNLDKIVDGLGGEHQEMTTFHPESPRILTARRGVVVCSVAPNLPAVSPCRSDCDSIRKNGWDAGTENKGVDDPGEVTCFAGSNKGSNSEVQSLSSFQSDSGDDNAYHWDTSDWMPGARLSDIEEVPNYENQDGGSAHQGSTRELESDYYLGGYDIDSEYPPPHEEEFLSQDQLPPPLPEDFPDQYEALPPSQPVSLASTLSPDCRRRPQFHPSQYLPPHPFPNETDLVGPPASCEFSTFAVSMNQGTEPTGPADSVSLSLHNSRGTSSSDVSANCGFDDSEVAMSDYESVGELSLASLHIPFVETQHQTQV

log2 fold change, inactive:
FN3KRP (UniProt Q9HA64) 0.045
FCGR2A (UniProt P12318) 0.025
FKRP (UniProt Q9H9S5) 0.057
FDXR isoform 7 (UniProt P22570) -0.023
FIP1L1 (UniProt Q6UN15) 0.024
FAM234A (UniProt Q9H0X4) 0.114
FLNA (UniProt P21333) -0.053
FAM98A (UniProt Q8NCA5) -0.039
FLT4 (UniProt P35916) -0.063
FBXL12 (UniProt Q9NXK8) -0.036
FKBPL (UniProt Q9UIM3) 0.072
FDX1 (UniProt P10109) 0.032
FAM91A1 (UniProt Q658Y4) -0.025
FBXO30 (UniProt Q8TB52) -0.012
FBXO7 (UniProt Q9Y3I1) -0.029
FAM76B (UniProt Q5HYJ3) 0.068
FAM3A (UniProt P98173) -0.041
FANCB (UniProt Q8NB91) -0.017
FECH isoform 2 (UniProt P22830) -0.116
FHL3 (UniProt Q13643) 0.024
FKBP9 (UniProt O95302) -0.014
FAM49B (UniProt Q9NUQ9) -0.01
FASTKD2 (UniProt Q9NYY8) 0.009
FGF13 isoform 3 (UniProt Q92913) -0.036
FERMT3 (UniProt Q86UX7) -0.03
FBXO6 (UniProt Q9NRD1) -0.099
FBL (UniProt P22087) 0.023
FNBP4 isoform 2 (UniProt Q8N3X1) 0.037
FAR1 (UniProt Q8WVX9) -0.008
FBH1 isoform 2 (UniProt Q8NFZ0) -0.002
FARS2 (UniProt O95363) -0.054
FN1 isoform 1 (UniProt P02751) 0.007
FKBP4 (UniProt Q02790) -0.036
FKBP5 (UniProt Q13451) -0.085
FAT3 isoform 1 (UniProt Q8TDW7) 0.093
FAM210A (UniProt Q96ND0) -0.006
FIS1 (UniProt Q9Y3D6) -0.022
FBXW9 (UniProt Q5XUX1) -0.006

Reprinted at random: 2 records from the list.
log2 fold change, inactive:
FIP1L1 (UniProt Q6UN15) 0.024
FDX1 (UniProt P10109) 0.032

Reference: the supplement of paper PMC10849652
